# Results of single-concentration screens

The values are deposited in ChEMBL (CHEMBL3988442, “University of Dundee, Small-Polar-MMV Screening Library” (2021)).

Values are the deposited “Percent Effect”, in %.
How 0% and 100% were set is not recorded. Most values in the screen are low, and negative values occur.
This is an unselected part of the compounds tested.
Two or more numbers in one place are separate tests of the same structure; such repeats can differ widely.

Mtb cholesterol medium: 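Phenotypic screen: M. tuberculosis growth, cholesterol and DPPC medium, 4 days; the read-out is not stated. Compounds at 50 µM. Direction is inferred from retests: higher values go with more growth inhibition. Size under these conditions: about 69,000 compounds, about 370 of them at 50% or above in at least one test.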
Mtb glucose medium: 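Phenotypic screen: M. tuberculosis growth, glucose 7H9 medium, 3 days; the read-out is not stated. Compounds at 50 µM. Higher reads as more growth inhibition (inferred: compounds with an IC50 in retests scored well above the rest). Size under these conditions: about 69,000 compounds, about 760 of them at 50% or above in at least one test.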

{"structure": "CN(C(=O)c1cccnc1)C1CCCN(CCc2ccccc2)C1", "stereo": "centres unmarked", "Mtb cholesterol medium": 10.01, "Mtb glucose medium": "-1.426 & 7.85"}
{"structure": "O=C(O)C(F)(F)F.O=C(c1ccncc1F)N1Cc2nc(COCC3CC3)oc2C1", "Mtb cholesterol medium": -6.512, "Mtb glucose medium": -21.22}
{"structure": "O=C(O)C(F)(F)F.[H][C@]12C[C@@H](Cn3cncn3)N(C(C)C)[C@@]1([H])CCN(Cc1ccsc1)C2", "Mtb cholesterol medium": -1.521, "Mtb glucose medium": 4.91}
{"structure": "CC(C)C(=O)Nc1ccc(Sc2nncn2C)c(Cl)c1", "Mtb cholesterol medium": -2.976, "Mtb glucose medium": 18.35}
{"structure": "CC(C)OCCC(=O)N(C)CCCc1cc(-c2ccccc2)no1", "Mtb cholesterol medium": -9.916, "Mtb glucose medium": -43.06}
{"structure": "CN(C)c1nccc(N(C)Cc2ncnn2C)n1", "Mtb cholesterol medium": 2.195, "Mtb glucose medium": 22.35}
{"structure": "[H][C@]12CN(C(=O)CC3CCCC3)[C@]([H])(CN1)C2", "Mtb cholesterol medium": -6.263, "Mtb glucose medium": -1.728}
{"structure": "CC(C)C(O)CNC(=O)CCCc1ccccn1", "stereo": "centres unmarked", "Mtb cholesterol medium": -10.85, "Mtb glucose medium": 1.323}
{"structure": "CN(C)c1ncccc1CNCc1cccc(O)c1", "Mtb cholesterol medium": 1.621, "Mtb glucose medium": 2.485}
{"structure": "CN(c1ncccc1CNC(=O)c1cscn1)C1CCCCC1", "Mtb cholesterol medium": 1.711, "Mtb glucose medium": "14.28 & 9.67"}
{"structure": "O=C(c1cncc(N2CCC3(CC2)NCCNC3=O)n1)N1CCCCC1", "Mtb cholesterol medium": "-2.282 & 8.954", "Mtb glucose medium": -16.32}
{"structure": "Cc1nc(C)n(CC2CCCN(CCC(=O)NC3CCCC3)C2)n1", "stereo": "centres unmarked", "Mtb cholesterol medium": -5.852, "Mtb glucose medium": -26.5}
{"structure": "Cc1nc(N2CCN(C(=O)c3ccccc3)CC2)c2cnn(C)c2n1", "Mtb cholesterol medium": -4.187, "Mtb glucose medium": "1.75 & 21.38"}
{"structure": "Cn1nc(CNC(=O)C2CC2)cc1C1CC1", "Mtb cholesterol medium": 12.9, "Mtb glucose medium": 38.75}
{"structure": "O=C(NCC1CCOC1)c1cc(-c2cccc(Cl)c2)on1", "stereo": "centres unmarked", "Mtb cholesterol medium": -11.31, "Mtb glucose medium": -1.815}
{"structure": "O=C(O)C(F)(F)F.[H][C@@]12CCC(CNC(=O)c3ccco3)[C@@]1([H])OCCN2Cc1cccs1", "stereo": "some centres unmarked", "Mtb cholesterol medium": 6.191, "Mtb glucose medium": "-4.085 & -1.103"}
{"structure": "Cc1cnn(CC2CCCN2C(=O)CCc2c(C)noc2Cl)c1", "stereo": "centres unmarked", "Mtb cholesterol medium": 0.03547, "Mtb glucose medium": "-3.22 & 4.731"}
{"structure": "CNC(=O)c1cn[nH]c1C1CCN(Cc2ccccc2F)C1", "stereo": "centres unmarked", "Mtb cholesterol medium": -2.503, "Mtb glucose medium": -5.222}
{"structure": "Cc1cc2n(n1)CCN(c1nc(N(C)C)nc3c1CCNC3)C2", "Mtb cholesterol medium": 9.655, "Mtb glucose medium": "-7.923 & 15.42"}
{"structure": "O=C(NCc1ccccc1)N1Cc2nc(COCC3CC3)oc2C1", "Mtb cholesterol medium": -1.507, "Mtb glucose medium": "4.012 & -0.6805"}
{"structure": "Cc1ccc(CC(=O)N2CCC(Nc3ccc(C)nn3)CC2)cn1", "Mtb cholesterol medium": -10.22, "Mtb glucose medium": 0.8771}
{"structure": "Cn1cc(CN2CCCC(c3nccnc3-c3cccc(F)c3)C2)cn1", "stereo": "centres unmarked", "Mtb cholesterol medium": 12.68, "Mtb glucose medium": -0.9809}
{"structure": "CCn1ncc2c1CN(C(=O)Cc1cccs1)CC2COC.O=C(O)C(F)(F)F", "stereo": "centres unmarked", "Mtb cholesterol medium": -29.49, "Mtb glucose medium": -3.907}
{"structure": "CN(C)CCOCc1cncc2c1CCN(C1CCOC1)C2.O=C(O)C(F)(F)F.O=C(O)C(F)(F)F.O=C(O)C(F)(F)F", "stereo": "centres unmarked", "Mtb cholesterol medium": 9.782, "Mtb glucose medium": 4.238}
{"structure": "CN(CC1CCCCO1)c1ncnc2cc(F)ccc12", "stereo": "centres unmarked", "Mtb cholesterol medium": -15.82, "Mtb glucose medium": 6.586}
{"structure": "CNC(=O)C1(N2CCC[C@H]2C(=O)NC2CC2)CCCCC1.Cl", "Mtb cholesterol medium": 11.91, "Mtb glucose medium": "29.72 & 2.977"}
{"structure": "CC(=O)c1ccc(N2CCN(C(=O)NCc3cc[nH]n3)CC2)cc1", "Mtb cholesterol medium": 14.06, "Mtb glucose medium": -15.84}
{"structure": "O=C1CCCN1c1cccc(CNCc2nc(C3CC3)no2)c1", "Mtb cholesterol medium": -4.538, "Mtb glucose medium": -1.115}
{"structure": "Cc1csc(C(=O)N2CCC3(CC(N(C)c4ccncn4)C3)C2)c1", "stereo": "centres unmarked", "Mtb cholesterol medium": 1.747, "Mtb glucose medium": 18.04}
{"structure": "CN1C(=O)CC(C(=O)O)C12CCN(Cc1cc(Cl)ccc1F)CC2", "stereo": "centres unmarked", "Mtb cholesterol medium": -6.268, "Mtb glucose medium": "-2.447 & 13.47"}
{"structure": "CN(Cc1ncc(-c2ccccc2)o1)C1CCCN(c2cccnn2)C1", "stereo": "centres unmarked", "Mtb cholesterol medium": 5.197, "Mtb glucose medium": 3.785}
{"structure": "CCCNC(=O)CN1CCC(NCc2c(C)nn(C)c2OC)CC1", "Mtb cholesterol medium": -12.7, "Mtb glucose medium": -24.06}
{"structure": "CCCC(=O)N(CCCN1CCOCC1)c1nc2c(F)cccc2s1.Cl", "Mtb cholesterol medium": -4.209, "Mtb glucose medium": "6.938 & 0.4024"}
{"structure": "CCN(CCN(C)C)c1nc(CCN)nc2sc(C)c(C)c12", "Mtb cholesterol medium": 33.04, "Mtb glucose medium": 33.02}
{"structure": "CN(Cc1nnc2n1CCC2)C(=O)c1ccc2c(c1)OCCCO2", "Mtb cholesterol medium": -45.02, "Mtb glucose medium": 111.9}
{"structure": "Cn1ccnc1CN1CCC(c2ccnc(-c3cccc(O)c3)c2)C1", "stereo": "centres unmarked", "Mtb cholesterol medium": -0.2739, "Mtb glucose medium": 37.39}
{"structure": "NC(=O)c1c[nH]nc1NC(=O)c1ccc(Cl)cc1", "Mtb cholesterol medium": -0.9715, "Mtb glucose medium": 8.608}
{"structure": "Cc1cn[nH]c1C1COCCN1Cc1ccsc1", "stereo": "centres unmarked", "Mtb cholesterol medium": "8.072 & 1.035", "Mtb glucose medium": -11.49}
{"structure": "O=C(CCc1ccncc1)Nc1ccc(OCC2CC2)cc1", "Mtb cholesterol medium": 21.6, "Mtb glucose medium": 16.93}
{"structure": "CCN(CCn1cccn1)Cc1nc(-c2ccc(F)cc2)oc1C", "Mtb cholesterol medium": 4.427, "Mtb glucose medium": -2.485}
{"structure": "CCCC1c2cccn2CCN1S(=O)(=O)N1CCOCC1", "stereo": "centres unmarked", "Mtb cholesterol medium": "-14.57 & -6.021", "Mtb glucose medium": -28.69}
{"structure": "COc1cccc([C@@H]2CCN(Cc3cn(C)c4ccccc34)C[C@H]2O)c1", "Mtb cholesterol medium": -12.9, "Mtb glucose medium": -0.546}

For reference, 5 entries once more:

With CNC(=O)c1cn[nH]c1C1CCN(Cc2ccccc2F)C1 (centres unmarked) the screen gave Mtb cholesterol medium: -2.503%; Mtb glucose medium: -5.222%.
With CC(C)OCCC(=O)N(C)CCCc1cc(-c2ccccc2)no1 the screen gave Mtb cholesterol medium: -9.916%; Mtb glucose medium: -43.06%.
With Cn1ccnc1CN1CCC(c2ccnc(-c3cccc(O)c3)c2)C1 (centres unmarked) the screen gave Mtb cholesterol medium: -0.2739%; Mtb glucose medium: 37.39%.
With CN(C)c1nccc(N(C)Cc2ncnn2C)n1 the screen gave Mtb cholesterol medium: 2.195%; Mtb glucose medium: 22.35%.
With CN(Cc1ncc(-c2ccccc2)o1)C1CCCN(c2cccnn2)C1 (centres unmarked) the screen gave Mtb cholesterol medium: 5.197%; Mtb glucose medium: 3.785%.